Assay results published in article PMC8882779.
No constants are given. Whether binding was seen depends on the method and setting. Binding calls can cover weak binding; strength is not graded here. Where a sequence is shown, tags or fusion partners need not be part of it. For part of these data: In cells and extracts the contact can be indirect.

B1: ZmTE1-YFP (35S::ZmTE1-YFP) (protein, UniProt O65001 1-656)
chain: MGGFPEATGNLLDAAAQEFHPTVCAPYPLQPLPQQLYCPHPYPAMPVPPPPQIAMLQPVPPMAMAMAPQPGYTLPTTTPVVNGPSSRVVVLGLVPPHAQEADVAQAMAPFGAIRSVDACAVASEGVATVHFFDIRAAELALTCVREQHMRQQSRLGQLYAAAAVAPAWAPAPTPQAWDWPHPNDDGRGLVLGHAVWAHFATGADDGDNRGSLVVLSPLPGVSVADLRQVFQAFGDLKDVRESAQRPSHKFVDFFDTRDAARALAELNGQELFGRRLVVEFTRPSGPGPRRRGYAPHQHRPTAPTPPRLQATWRPSQPTSSQPPASSSSSGSVRAREGVVLLRRSSCKSSAGSDQSSKGGNAGTSHERKTKGGKIVVAAAAASSSTPTASGKQTQKGVGSSGGGSWKGRKSGWEARFLFKEPEAGGGADTQATPASEMDTRTTVMIRNIPNKYSQKLLLNMLDNHCIQSNEWIVASGEEQPFSAYDFVYLPIDFNNKCNVGYGFVNLTSPEARVRLYKAFHKQPWEVYNSRKICQVTYARVQGLEALKEHFKNSKFPCDSDEYLPVAFSPARDGKELTDPVPIVGRSPAASSASSPPKSRAASVDRLGQELMPAPSSSADGASSTTTSTHAPSEHDEEEEEGDIRLAGELRRLGYDD

What was measured:
[1] = target: T1, BD-ZmTE1 (TERMINAL EAR 1, bait in pGBKT7) (maize) (UniProt O65001); assay: two-hybrid; Matchmaker GAL4 Two-Hybrid System 3; ZmTE1 in pGBKT7 (BD) as bait to screen a maize cDNA library, candidates re-cloned in pGADT7 (AD); yeast Y2HGold; growth on SD -LWH and -LWAH
T1 sequence: B1 chain

[2] = target: T2, ZmTE1-Myc (35S::ZmTE1-Myc) (maize) (UniProt O65001); assay: co-IP; Myc- and YFP-tagged proteins transiently expressed in Arabidopsis mesophyll cells; lysate (10 mM Tris-HCl pH 7.5, 150 mM NaCl, 0.5 mM EDTA, 0.5% NP-40) on MYC-Trap magnetic agarose beads, 4 °C, 2 h; blots with anti-MYC and anti-GFP
T2 sequence: B1 chain

[3] = target: ZmPP2Ac-2-Myc (35S::ZmPP2Ac-2-Myc) (maize); assay: as above

| Molecule | binding [1] | also measured |
| --- | --- | --- |
| AD-ZmARF32 (prey in pGADT7) (maize) | binds | – |
| AD-ZmMBR1 (prey in pGADT7) (maize) | binds | – |
| AD-ZmPP2Ac-2 (prey in pGADT7) (maize) (enzyme) | binds | – |
| AD-ZmWEE1 (prey in pGADT7) (maize) (enzyme) | binds | – |
| ZmWEE1-YFP (35S::ZmWEE1-YFP) (maize) (enzyme) | – | binding [2]: binds |
| B1 | – | binding [3]: binds |
